PubChem BioAssay AID1259424, University of Nebraska Medical Center | 2018
Shown is a random part of about 14,000 deposited reagents. 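Higher correlation or smaller distance means closer resemblance to KSR1 loss; control wells, including KSR1 knockdowns, recur on many plates.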 A reagent listed more than once was tested more than once; the source does not tell the runs apart. Not all columns of the deposit are shown. Reagent sequences are not shown. Not stated in the record: the time to read-out.

Screen: 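Find knockdowns that reproduce the expression shifts seen after KSR1 loss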 (primary screen)
Cells: human HCT116 colon cancer cells
Reagent: siRNA pool against human genes, 50 nM
Read-out: 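Log2 levels of six mRNAs (branched-DNA multiplex), adjusted by two reference genes and the non-targeting median, then scored against the average KSR1 knockdown pattern as Pearson r and euclidean distance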
Reading the numbers: mean correlation with KSR1 profile: higher = expression change more like KSR1 knockdown; mean distance from KSR1 profile: higher = expression change less like KSR1 knockdown

Depletion of PRPF40A gave: mean correlation with KSR1 profile -0.54; mean distance from KSR1 profile 6.31.
Silencing of TRPC7 resulted in: mean correlation with KSR1 profile -0.153; mean distance from KSR1 profile 3.25.
With knock-down of TPD52L3 the results were mean correlation with KSR1 profile -0.232; mean distance from KSR1 profile 1.4.
Against RPS3A, the entry reads mean correlation with KSR1 profile -0.552; mean distance from KSR1 profile 1.9.
For EZR, the entry reads mean correlation with KSR1 profile 0.633; mean distance from KSR1 profile 1.62.
After knock-down of MAP2K2, the screen gave mean correlation with KSR1 profile 0.613; mean distance from KSR1 profile 1.88.
ADNP gave mean correlation with KSR1 profile -0.584; mean distance from KSR1 profile 1.37.
Knock-down of TBCA resulted in: mean correlation with KSR1 profile -0.599; mean distance from KSR1 profile 2.3.
FAM135B scored mean correlation with KSR1 profile -0.196; mean distance from KSR1 profile 1.3.
After knock-down of SKAP2 the results were mean correlation with KSR1 profile 0.662; mean distance from KSR1 profile 0.624.
After knock-down of C3orf36, the record shows mean correlation with KSR1 profile -0.359; mean distance from KSR1 profile 2.3.
PPP2CA gave mean correlation with KSR1 profile 0.519; mean distance from KSR1 profile 1.93.
IQSEC3 showed mean correlation with KSR1 profile -0.129; mean distance from KSR1 profile 1.85.
CLSPN showed mean correlation with KSR1 profile -0.0512; mean distance from KSR1 profile 1.89.
CSRP3 scored mean correlation with KSR1 profile -0.581; mean distance from KSR1 profile 2.89.
Knock-down of CDK16 gave: mean correlation with KSR1 profile 0.171; mean distance from KSR1 profile 1.68.
TRAIP scored mean correlation with KSR1 profile 0.0889; mean distance from KSR1 profile 1.63.
Depletion of CPNE1 resulted in: mean correlation with KSR1 profile 0.185; mean distance from KSR1 profile 1.61.
Silencing of HYAL4 came out at: mean correlation with KSR1 profile -0.445; mean distance from KSR1 profile 3.63.
CGB5 gave mean correlation with KSR1 profile 0.0222; mean distance from KSR1 profile 2.07.
For AHSP, the values are mean correlation with KSR1 profile -0.134; mean distance from KSR1 profile 1.86.
Silencing of AHSP resulted in: mean correlation with KSR1 profile -0.159; mean distance from KSR1 profile 2.18.
TRPV3 gave mean correlation with KSR1 profile -0.525; mean distance from KSR1 profile 3.91.
With knock-down of SRSF11, the screen gave mean correlation with KSR1 profile 0.0779; mean distance from KSR1 profile 2.53.
For DEFB103B, the entry reads mean correlation with KSR1 profile -0.0334; mean distance from KSR1 profile 1.49.
With knock-down of CNGA1, the record shows mean correlation with KSR1 profile 0.345; mean distance from KSR1 profile 2.37.
With knock-down of SLC25A31, the screen gave mean correlation with KSR1 profile 0.657; mean distance from KSR1 profile 2.52.
For CHD5 the deposit lists mean correlation with KSR1 profile -0.228; mean distance from KSR1 profile 3.03.

Ordered by “mean distance from KSR1 profile” (highest first): some entries from above.
TRPV3 — mean correlation with KSR1 profile = -0.525; mean distance from KSR1 profile = 3.91
SRSF11 — mean correlation with KSR1 profile = 0.0779; mean distance from KSR1 profile = 2.53
CNGA1 — mean correlation with KSR1 profile = 0.345; mean distance from KSR1 profile = 2.37
DEFB103B — mean correlation with KSR1 profile = -0.0334; mean distance from KSR1 profile = 1.49
